The test concerns the target HA-tagged NEDD8 (UniProt Q15843). The test can be described thus: co-IP; HEK293 cells co-expressing FLAG-HDAC6 (full length or ΔBUZ), HA-NEDD8 and UBC12; lysed in modified RIPA buffer (0.3% NP40, 1% sodium deoxycholate, 150 mM NaCl, pH 7.5); HA-NEDD8 immunoprecipitated with anti-HA overnight at 4°C, isotype IgG as control; immunoblot with FLAG antibody.

Sequences of proteins named here, by UniProt entry; tags and fusion partners are left off. Residues count along the entry.
UniProt Q15843, residues 1-76: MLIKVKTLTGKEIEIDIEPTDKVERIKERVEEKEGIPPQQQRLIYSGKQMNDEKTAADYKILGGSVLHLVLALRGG
UniProt Q9UBN7: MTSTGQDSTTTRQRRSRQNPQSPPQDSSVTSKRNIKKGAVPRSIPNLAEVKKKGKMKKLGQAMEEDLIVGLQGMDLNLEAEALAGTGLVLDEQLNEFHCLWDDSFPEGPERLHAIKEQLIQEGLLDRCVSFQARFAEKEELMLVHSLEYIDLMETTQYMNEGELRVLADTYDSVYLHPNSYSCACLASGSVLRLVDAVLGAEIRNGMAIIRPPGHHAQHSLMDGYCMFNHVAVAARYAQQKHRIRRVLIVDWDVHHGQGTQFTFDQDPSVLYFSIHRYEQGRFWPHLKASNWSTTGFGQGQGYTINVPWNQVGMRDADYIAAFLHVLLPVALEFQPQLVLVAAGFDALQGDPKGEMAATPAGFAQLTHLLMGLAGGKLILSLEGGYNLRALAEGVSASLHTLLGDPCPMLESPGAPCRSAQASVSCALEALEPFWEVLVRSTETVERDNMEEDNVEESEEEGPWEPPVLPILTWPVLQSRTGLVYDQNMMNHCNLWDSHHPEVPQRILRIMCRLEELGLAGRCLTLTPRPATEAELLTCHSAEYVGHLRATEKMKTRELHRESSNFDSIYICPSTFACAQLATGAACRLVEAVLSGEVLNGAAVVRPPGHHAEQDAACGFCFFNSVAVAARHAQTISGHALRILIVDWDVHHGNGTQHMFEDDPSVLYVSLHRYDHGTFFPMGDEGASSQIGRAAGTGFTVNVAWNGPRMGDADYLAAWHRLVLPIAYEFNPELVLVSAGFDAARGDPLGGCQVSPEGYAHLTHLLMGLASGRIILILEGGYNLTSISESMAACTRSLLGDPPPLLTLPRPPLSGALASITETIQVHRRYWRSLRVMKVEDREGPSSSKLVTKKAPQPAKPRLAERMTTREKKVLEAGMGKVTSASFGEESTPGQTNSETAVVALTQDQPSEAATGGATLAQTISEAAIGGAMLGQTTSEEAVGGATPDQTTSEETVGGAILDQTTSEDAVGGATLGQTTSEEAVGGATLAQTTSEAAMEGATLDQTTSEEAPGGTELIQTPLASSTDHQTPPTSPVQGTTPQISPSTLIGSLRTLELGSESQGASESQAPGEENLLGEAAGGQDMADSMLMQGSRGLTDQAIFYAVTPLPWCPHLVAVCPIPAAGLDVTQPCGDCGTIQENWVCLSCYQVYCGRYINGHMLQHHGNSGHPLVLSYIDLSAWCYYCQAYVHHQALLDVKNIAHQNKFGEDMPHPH

Results are given in words; binding and its absence hold for the method and conditions named. In cells and extracts the contact can be indirect. Some binding calls cover weakened binding; strength is not graded here.

Regarding “FLAG epitope-tagged full-length HDAC6 (histone deacetylase 6) (from UniProt Q9UBN7 1-1215) (enzyme)”, the binding entry was “binds”.

Source of the values: article PMC8245780.
